Measurements from doi:10.1101/2022.10.20.512996.
No constants are given. Whether binding was seen depends on the method and setting. In cells and extracts the contact can be indirect. Sequences can lack the tags named with a protein.

Biological target: T1, AtFZL-YFP (Arabidopsis FZO-LIKE with a C-terminal YFP tag) (Arabidopsis thaliana) (UniProt Q1KPV0)
T1 sequence: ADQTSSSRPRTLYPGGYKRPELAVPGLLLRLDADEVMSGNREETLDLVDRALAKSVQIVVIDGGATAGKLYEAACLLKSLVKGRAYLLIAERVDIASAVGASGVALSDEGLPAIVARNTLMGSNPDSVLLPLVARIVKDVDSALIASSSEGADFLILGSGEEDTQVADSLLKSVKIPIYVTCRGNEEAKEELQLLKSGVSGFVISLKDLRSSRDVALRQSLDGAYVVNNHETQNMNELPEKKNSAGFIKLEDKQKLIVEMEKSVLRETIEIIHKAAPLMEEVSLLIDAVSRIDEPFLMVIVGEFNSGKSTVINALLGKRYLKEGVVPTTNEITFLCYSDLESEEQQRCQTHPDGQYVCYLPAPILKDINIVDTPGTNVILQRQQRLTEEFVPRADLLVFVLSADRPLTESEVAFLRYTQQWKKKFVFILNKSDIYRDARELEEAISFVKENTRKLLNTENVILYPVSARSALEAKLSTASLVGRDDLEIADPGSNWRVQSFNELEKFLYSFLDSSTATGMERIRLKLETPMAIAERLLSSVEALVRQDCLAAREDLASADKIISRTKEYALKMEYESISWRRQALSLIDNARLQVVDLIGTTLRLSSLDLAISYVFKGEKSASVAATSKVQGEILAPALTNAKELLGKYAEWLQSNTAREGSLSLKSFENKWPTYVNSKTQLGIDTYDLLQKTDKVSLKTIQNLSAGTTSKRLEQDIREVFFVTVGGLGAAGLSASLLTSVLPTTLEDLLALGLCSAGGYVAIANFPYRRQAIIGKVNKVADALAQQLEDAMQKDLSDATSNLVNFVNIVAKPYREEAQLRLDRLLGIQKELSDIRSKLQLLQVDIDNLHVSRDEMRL
Assay: co-IP

binding: no binding
B1: AtMFP1-RFP (Arabidopsis MAR BINDING FILAMENT-LIKE PROTEIN 1 with an RFP tag) (protein, UniProt Q9LW85 96-726)
chain: DERGNEIKTSKVDLETEVAVVSEGTSPNPFLALLNGLGIFSAGVLGALYALARQDTKAAEETIESLKNQLKDRERALVLKEKDFEAKLQHEQEERKKEVEKAKEEQLSLINQLNSAKDLVTELGRELSSEKKLCEKLKDQIESLENSLSKAGEDKEALETKLREKLDLVEGLQDRINLLSLELKDSEEKAQRFNASLAKKEAELKELNSIYTQTSRDLAEAKLEIKQQKEELIRTQSELDSKNSAIEELNTRITTLVAEKESYIQKLDSISKDYSALKLTSETQAAADAELISRKEQEIQQLNENLDRALDDVNKSKDKVADLTEKYEDSKRMLDIELTTVKNLRHELEGTKKTLQASRDRVSDLETMLDESRALCSKLESELAIVHEEWKEAKERYERNLDAEKQKNEISASELALEKDLRRRVKDELEGVTHELKESSVKNQSLQKELVEIYKKVETSNKELEEEKKTVLSLNKEVKGMEKQILMEREARKSLETDLEEAVKSLDEMNKNTSILSRELEKVNTHASNLEDEKEVLQRSLGEAKNASKEAKENVEDAHILVMSLGKEREVLEKKVKKLEEDLGSAKGEILRMRSQPDSVKAVNSTDNKEKSDNTVTVKKVVRRRKSSTSS
